Measurements published in the supplement of paper PMC10849652.
This is one part of the list.

By UniProt entry, the sequences of proteins in these tests, tags left out. Where a name states a change or a piece, a line headed by the entry shows the natural chain unless it says otherwise.
UniProt P14174: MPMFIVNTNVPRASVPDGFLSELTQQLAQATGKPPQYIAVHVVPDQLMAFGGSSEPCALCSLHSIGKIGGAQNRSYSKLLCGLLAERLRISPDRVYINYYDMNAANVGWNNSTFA
UniProt Q13724: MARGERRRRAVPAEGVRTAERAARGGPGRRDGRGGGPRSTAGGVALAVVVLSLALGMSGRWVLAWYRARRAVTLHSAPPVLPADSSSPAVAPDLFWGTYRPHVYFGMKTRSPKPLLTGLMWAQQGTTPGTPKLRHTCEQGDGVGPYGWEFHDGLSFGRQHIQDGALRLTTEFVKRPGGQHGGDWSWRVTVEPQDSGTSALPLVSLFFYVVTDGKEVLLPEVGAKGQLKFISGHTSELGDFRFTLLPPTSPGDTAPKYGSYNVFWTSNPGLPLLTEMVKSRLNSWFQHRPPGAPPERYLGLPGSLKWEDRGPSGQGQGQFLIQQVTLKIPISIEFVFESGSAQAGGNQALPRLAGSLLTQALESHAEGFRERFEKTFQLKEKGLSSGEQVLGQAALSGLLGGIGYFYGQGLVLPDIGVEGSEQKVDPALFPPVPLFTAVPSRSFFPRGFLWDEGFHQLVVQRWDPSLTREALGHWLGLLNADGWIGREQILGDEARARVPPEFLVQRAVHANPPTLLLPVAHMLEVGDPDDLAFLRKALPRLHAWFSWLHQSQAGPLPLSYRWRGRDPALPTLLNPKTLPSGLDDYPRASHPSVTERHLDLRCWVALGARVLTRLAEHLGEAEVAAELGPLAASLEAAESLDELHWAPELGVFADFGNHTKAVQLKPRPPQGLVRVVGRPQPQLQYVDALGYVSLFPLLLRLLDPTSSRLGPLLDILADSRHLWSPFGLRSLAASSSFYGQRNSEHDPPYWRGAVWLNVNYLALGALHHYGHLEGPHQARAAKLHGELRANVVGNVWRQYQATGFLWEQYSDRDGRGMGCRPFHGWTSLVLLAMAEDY
UniProt Q9BVC4, whole entry, looked up: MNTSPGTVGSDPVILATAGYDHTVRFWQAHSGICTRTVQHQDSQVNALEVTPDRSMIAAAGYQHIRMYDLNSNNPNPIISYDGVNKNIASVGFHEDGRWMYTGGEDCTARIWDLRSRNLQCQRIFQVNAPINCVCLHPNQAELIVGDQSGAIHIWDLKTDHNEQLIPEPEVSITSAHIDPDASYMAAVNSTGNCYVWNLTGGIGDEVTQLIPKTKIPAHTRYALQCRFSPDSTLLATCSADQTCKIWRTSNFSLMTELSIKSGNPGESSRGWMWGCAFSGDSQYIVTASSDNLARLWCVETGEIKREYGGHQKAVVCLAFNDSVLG
UniProt P22033: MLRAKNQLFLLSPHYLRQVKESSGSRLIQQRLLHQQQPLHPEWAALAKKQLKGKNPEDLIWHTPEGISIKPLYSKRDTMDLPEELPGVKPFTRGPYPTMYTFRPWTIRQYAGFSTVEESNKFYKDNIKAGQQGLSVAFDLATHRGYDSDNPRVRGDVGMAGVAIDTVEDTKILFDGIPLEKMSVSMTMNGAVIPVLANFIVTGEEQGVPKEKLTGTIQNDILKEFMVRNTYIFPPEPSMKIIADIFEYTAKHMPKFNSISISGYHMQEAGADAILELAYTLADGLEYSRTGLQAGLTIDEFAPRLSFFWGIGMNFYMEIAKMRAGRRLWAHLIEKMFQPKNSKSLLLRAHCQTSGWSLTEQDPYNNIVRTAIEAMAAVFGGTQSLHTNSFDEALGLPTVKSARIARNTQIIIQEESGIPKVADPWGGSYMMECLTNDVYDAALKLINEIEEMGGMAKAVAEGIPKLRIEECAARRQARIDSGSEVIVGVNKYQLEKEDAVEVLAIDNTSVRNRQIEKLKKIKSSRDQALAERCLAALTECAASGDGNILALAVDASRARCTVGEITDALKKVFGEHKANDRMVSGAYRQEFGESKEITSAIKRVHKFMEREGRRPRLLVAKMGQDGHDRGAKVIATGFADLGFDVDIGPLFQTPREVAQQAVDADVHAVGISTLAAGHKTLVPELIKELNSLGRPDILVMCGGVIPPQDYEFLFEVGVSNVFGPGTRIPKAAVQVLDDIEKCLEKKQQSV
UniProt A9UHW6: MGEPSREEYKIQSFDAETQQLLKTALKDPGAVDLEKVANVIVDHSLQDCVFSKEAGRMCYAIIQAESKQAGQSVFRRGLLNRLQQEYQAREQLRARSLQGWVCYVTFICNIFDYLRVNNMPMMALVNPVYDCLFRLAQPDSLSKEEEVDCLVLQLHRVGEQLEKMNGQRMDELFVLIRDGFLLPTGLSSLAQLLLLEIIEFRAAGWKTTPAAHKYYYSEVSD
UniProt P46013: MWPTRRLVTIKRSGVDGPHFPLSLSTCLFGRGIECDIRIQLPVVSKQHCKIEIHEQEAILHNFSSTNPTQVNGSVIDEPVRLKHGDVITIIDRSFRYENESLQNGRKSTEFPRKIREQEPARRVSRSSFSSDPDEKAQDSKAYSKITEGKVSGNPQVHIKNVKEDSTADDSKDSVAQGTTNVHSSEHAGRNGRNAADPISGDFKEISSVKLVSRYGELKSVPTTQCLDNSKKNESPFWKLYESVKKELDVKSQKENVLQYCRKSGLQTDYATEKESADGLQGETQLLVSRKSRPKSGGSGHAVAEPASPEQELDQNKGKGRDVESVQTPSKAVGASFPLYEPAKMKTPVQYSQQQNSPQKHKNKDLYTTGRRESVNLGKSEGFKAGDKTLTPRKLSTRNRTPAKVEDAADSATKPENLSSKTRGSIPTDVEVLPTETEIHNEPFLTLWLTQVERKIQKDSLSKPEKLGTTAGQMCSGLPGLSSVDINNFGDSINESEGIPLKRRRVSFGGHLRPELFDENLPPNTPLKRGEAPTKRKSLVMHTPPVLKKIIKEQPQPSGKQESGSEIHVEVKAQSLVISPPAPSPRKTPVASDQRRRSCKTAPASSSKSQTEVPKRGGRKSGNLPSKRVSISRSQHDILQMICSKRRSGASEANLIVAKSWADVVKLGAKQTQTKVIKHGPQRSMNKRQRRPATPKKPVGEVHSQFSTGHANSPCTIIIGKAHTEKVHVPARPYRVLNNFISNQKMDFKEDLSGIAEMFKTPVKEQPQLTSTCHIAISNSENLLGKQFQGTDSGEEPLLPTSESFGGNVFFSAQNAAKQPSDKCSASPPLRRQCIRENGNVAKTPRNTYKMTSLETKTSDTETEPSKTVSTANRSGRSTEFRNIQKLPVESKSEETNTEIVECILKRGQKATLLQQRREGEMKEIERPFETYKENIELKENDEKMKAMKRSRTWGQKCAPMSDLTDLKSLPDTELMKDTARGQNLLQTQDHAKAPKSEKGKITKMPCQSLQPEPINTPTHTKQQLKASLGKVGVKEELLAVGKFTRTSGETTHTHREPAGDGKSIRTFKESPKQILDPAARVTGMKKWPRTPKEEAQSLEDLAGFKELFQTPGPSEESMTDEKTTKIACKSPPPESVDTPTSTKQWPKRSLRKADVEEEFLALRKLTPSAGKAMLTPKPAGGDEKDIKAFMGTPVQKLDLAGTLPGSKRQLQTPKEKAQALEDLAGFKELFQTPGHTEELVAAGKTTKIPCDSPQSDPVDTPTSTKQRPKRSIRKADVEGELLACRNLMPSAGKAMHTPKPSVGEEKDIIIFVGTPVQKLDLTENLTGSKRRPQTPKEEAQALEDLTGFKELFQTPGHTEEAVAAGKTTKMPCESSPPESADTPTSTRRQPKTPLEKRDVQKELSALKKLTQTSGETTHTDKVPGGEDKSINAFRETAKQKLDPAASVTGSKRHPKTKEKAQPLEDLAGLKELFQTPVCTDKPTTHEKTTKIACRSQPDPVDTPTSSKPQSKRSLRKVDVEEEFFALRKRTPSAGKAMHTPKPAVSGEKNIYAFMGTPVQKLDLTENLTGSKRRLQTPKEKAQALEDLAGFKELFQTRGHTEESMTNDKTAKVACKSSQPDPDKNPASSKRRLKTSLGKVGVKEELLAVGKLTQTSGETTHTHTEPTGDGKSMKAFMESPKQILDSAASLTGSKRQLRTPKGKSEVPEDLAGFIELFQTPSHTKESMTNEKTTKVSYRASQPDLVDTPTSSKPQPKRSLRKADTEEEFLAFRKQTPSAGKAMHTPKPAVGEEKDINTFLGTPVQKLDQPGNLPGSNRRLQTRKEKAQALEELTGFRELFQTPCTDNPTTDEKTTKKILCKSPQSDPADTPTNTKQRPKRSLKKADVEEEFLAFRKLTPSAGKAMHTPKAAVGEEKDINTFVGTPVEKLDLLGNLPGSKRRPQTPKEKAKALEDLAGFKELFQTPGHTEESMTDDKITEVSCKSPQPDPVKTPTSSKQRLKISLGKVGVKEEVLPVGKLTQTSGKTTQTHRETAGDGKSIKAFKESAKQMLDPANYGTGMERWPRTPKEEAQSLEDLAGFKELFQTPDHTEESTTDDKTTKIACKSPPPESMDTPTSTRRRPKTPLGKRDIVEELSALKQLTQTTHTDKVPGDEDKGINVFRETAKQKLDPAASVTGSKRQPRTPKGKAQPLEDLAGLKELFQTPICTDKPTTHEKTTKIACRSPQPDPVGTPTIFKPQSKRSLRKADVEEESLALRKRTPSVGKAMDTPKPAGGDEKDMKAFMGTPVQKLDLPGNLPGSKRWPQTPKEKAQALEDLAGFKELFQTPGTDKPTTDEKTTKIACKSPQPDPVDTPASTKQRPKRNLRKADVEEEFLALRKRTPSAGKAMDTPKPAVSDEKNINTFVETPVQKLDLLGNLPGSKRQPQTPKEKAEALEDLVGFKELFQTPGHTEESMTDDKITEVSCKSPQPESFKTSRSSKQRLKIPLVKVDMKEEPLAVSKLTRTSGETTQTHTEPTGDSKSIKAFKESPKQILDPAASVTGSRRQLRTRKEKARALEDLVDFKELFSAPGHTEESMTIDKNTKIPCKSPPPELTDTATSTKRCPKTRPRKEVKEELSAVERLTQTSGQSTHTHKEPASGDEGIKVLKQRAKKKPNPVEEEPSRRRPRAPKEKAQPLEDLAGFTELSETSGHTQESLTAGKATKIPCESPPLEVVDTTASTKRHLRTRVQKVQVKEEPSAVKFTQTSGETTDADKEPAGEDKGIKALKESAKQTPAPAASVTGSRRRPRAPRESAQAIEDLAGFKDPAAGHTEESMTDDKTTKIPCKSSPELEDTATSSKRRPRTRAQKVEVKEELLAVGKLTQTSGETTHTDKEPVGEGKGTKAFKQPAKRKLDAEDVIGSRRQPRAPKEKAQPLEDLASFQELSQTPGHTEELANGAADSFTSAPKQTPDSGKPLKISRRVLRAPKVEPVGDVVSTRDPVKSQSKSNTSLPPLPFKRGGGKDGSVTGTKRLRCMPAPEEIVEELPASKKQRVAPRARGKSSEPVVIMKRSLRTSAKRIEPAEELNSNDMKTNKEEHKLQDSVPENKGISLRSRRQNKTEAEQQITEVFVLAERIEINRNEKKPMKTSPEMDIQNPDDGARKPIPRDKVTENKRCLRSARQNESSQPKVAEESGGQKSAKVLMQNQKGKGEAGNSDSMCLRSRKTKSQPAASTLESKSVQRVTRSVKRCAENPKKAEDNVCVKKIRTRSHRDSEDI
UniProt Q9H081: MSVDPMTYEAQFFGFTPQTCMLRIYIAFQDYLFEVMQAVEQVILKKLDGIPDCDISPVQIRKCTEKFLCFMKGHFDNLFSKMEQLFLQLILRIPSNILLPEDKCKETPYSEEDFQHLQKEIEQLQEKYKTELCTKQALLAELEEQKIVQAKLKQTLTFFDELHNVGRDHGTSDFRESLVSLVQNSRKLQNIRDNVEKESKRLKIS
UniProt Q9Y605: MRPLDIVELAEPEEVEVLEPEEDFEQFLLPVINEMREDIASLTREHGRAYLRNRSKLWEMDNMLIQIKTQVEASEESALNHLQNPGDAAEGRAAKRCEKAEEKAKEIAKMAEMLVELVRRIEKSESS
UniProt Q8IYU8: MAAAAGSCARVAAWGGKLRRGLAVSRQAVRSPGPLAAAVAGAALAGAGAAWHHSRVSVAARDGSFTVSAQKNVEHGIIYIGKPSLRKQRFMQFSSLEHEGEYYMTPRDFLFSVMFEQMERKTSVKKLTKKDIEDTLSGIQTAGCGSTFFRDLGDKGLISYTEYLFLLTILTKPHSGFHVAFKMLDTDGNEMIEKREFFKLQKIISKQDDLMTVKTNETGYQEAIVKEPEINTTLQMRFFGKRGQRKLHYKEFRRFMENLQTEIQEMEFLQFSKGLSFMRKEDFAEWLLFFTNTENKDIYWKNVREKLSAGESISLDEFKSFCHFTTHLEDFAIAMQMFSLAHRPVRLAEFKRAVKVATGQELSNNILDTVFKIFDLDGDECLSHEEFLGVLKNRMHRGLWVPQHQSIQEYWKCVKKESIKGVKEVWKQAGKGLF
UniProt Q15014, whole entry, looked up: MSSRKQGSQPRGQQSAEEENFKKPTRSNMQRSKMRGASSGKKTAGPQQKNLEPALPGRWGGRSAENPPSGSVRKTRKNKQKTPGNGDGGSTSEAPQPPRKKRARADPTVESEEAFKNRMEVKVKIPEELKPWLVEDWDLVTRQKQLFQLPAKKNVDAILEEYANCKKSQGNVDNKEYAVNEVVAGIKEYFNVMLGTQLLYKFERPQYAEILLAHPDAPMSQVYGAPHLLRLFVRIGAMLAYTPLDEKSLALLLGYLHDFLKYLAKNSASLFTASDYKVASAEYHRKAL

Experiments:
Experiment in all cases: log2 fold change, soluble protein after heating vs DMSO (PISA); higher = thermal stabilisation; K562 lysate, 10 uM; active = over 0.2 and 3.5 SD of the protein, either way, in both replicates (recomputed)
[1] = compound: C1=CC=C(C=C1)[C@H](COC2=CC3=C(C=C2)NC(=O)N3)NC(=O)C4=CC=CN(C4=O)CC5=CC(=C(C=C5)F)F
Summary of the method: (§1)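 Soluble protein was defined as the supernatant remaining after 21,000xg for 90 min, following pooling of heated aliquots and adjustment to 0.5% NP-40 at 4°C. Before that, crude K562 extract at 1 mg/mL protein in PBS pH 7.4 with 1 mM MgCl2 was treated with 10 μM compound for 30 min and heated for 3 min across 48°C-58°C. Quantification used TMTpro 16plex LC-MS/MS with channel sums equalised, and values are log-two fold changes in thermal stability relative to solvent controls from duplicates.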

[2] = compound: CC1=C(SC2=C1C(=N[C@H](C3=NN=C(N32)C)CC(=O)N)C4=CC=C(C=C4)Cl)C
Summary of the method: as §1

[3] = compound: CC1=C2C(=CC=C1)N=C(N(C2=O)C3=CC=CC=C3C)CN4C=NC5=C(N=CN=C54)N
Summary of the method: as §1

[4] = compound: Cc1sc2c(c1C)C(c1ccc(Cl)cc1)=N[C@@H](CC(=O)OC(C)(C)C)c1nnc(C)n1-2
Summary of the method: as §1

[5] = compound: c1ccc([C@@H]2C[C@H]2NC2CCNCC2)cc1
Summary of the method: as §1

Measured: log2 fold change

MOV10 (UniProt Q9HCE1)
inactive: [1] 0.028 | [2] 0.01 | [3] 0.021 | [4] 0.029 | [5] 0.02

MIF (UniProt P14174)
inactive: [1] 0.046 | [2] 0.022 | [3] -0.043 | [4] -0.013 | [5] -0.09

MORC3 (UniProt Q14149)
inactive: [1] 0.013 | [2] 0 | [3] 0.003 | [4] 0.013 | [5] 0.012

MPHOSPH6 (UniProt Q99547)
inactive: [1] 0.006 | [2] 0.012 | [3] 0.056 | [4] -0.103 | [5] 0.002

MOGS (UniProt Q13724)
inactive: [1] -0.018 | [2] 0.023 | [3] 0.001 | [4] 0.027 | [5] 0.021

MRPL17 (UniProt Q9NRX2)
inactive: [1] 0.054 | [2] 0.008 | [3] -0.034 | [4] 0.049 | [5] 0.059

MLEC (UniProt Q14165)
inactive: [1] 0.048 | [2] 0.005 | [3] 0.004 | [4] -0.018 | [5] 0.012

MMADHC (UniProt Q9H3L0)
inactive: [1] 0.039 | [2] -0.034 | [3] 0.025 | [4] -0.08 | [5] -0.004

MIER2 (UniProt Q8N344)
inactive: [1] 0.156 | [2] -0.288 | [3] 0.077 | [4] -0.021 | [5] 0.056

MPP5 (UniProt Q8N3R9)
inactive: [1] -0.044 | [2] 0.045 | [3] -0.006 | [4] 0.029 | [5] -0.11

MRI1 (UniProt Q9BV20)
inactive: [1] 0.017 | [2] 0.017 | [3] 0 | [4] -0.03 | [5] -0.033

MRPL1 (UniProt Q9BYD6)
inactive: [1] 0.038 | [2] -0.004 | [3] 0.011 | [4] -0.033 | [5] 0.086

MGST3 (UniProt O14880)
inactive: [1] 0.003 | [2] -0.033 | [3] -0.008 | [4] -0.072 | [5] 0.056

MPP6 (UniProt Q9NZW5)
inactive: [1] -0.002 | [2] 0.038 | [3] 0.036 | [4] -0.049 | [5] 0.005

MICOS10 (UniProt Q5TGZ0)
inactive: [1] -0.074 | [2] -0.152 | [3] 0 | [4] -0.049 | [5] 0.019

MPC1 (UniProt Q9Y5U8)
inactive: [1] -0.17 | [2] 0.148 | [3] -0.077 | [4] -0.087 | [5] 0.114

MGA (UniProt Q8IWI9)
inactive: [1] -0.044 | [2] 0.134 | [3] 0.152 | [4] -0.225 | [5] -0.078

MIPEP (UniProt Q99797)
inactive: [1] 0.015 | [2] -0.019 | [3] 0.052 | [4] 0.028 | [5] -0.008

MICOS13 (UniProt Q5XKP0)
inactive: [1] -0.149 | [2] 0.055 | [3] 0.052 | [4] 0.045 | [5] 0.05

MON2 isoform 5 (UniProt Q7Z3U7)
inactive: [1] -0.014 | [2] 0.006 | [3] 0.005 | [4] 0.009 | [5] -0.013

MID1IP1 (UniProt Q9NPA3)
inactive: [1] 0.15 | [2] -0.153 | [3] 0.027 | [4] 0.072 | [5] 0.073

MOCS2 (UniProt O96007)
inactive: [1] -0.015 | [2] 0.021 | [3] -0.001 | [4] -0.016 | [5] 0.016

MMACHC (UniProt Q9Y4U1)
inactive: [1] 0.082 | [2] -0.221 | [3] -0.011 | [4] 0.073 | [5] 0.131

MLST8 (UniProt Q9BVC4)
inactive: [1] -0.038 | [2] 0.037 | [3] -0.051 | [4] 0.001 | [5] 0.011

MPHOSPH8 (UniProt Q99549)
inactive: [1] 0.218 | [2] -0.134 | [3] -0.02 | [4] -0.011 | [5] -0.099

MPV17 (UniProt P39210)
inactive: [1] -0.11 | [2] -0.083 | [3] 0.036 | [4] -0.015 | [5] 0.02

MRPL20 (UniProt Q9BYC9)
inactive: [1] -0.008 | [2] -0.004 | [3] 0.059 | [4] 0.026 | [5] 0.078

MRPL12 (UniProt P52815)
inactive: [1] -0.084 | [2] 0.015 | [3] -0.022 | [4] 0.027 | [5] 0.047

MRPL11 (UniProt Q9Y3B7)
inactive: [1] -0.072 | [2] 0.036 | [3] -0.003 | [4] 0.017 | [5] 0.011

MNAT1 (UniProt P51948)
inactive: [1] 0.077 | [2] -0.007 | [3] 0.017 | [4] -0.053 | [5] -0.063

MMUT (UniProt P22033)
inactive: [1] -0.008 | [2] 0.051 | [3] 0.021 | [4] 0.012 | [5] 0.03

MRPL21 (UniProt Q7Z2W9)
inactive: [1] -0.004 | [2] 0.081 | [3] 0.049 | [4] 0.031 | [5] 0

MGAT5 (UniProt Q09328)
inactive: [1] 0.088 | [2] -0.027 | [3] -0.171 | [4] 0.017 | [5] 0.083

MIF4GD isoform 3 (UniProt A9UHW6)
inactive: [1] -0.046 | [2] -0.033 | [3] 0.005 | [4] -0.051 | [5] -0.029

MPG (UniProt P29372)
inactive: [1] -0.039 | [2] -0.001 | [3] 0.047 | [4] -0.059 | [5] -0.017

MKI67 (UniProt P46013)
inactive: [1] 0.08 | [2] 0.016 | [3] -0.028 | [4] 0.003 | [5] 0.013

MPRIP isoform 2 (UniProt Q6WCQ1)
inactive: [1] -0.06 | [2] 0.034 | [3] 0.054 | [4] -0.072 | [5] -0.033

MKNK1 (UniProt Q9BUB5)
inactive: [1] -0.038 | [2] 0.019 | [3] -0.042 | [4] 0 | [5] -0.025

MIS12 (UniProt Q9H081)
inactive: [1] 0.014 | [2] -0.014 | [3] 0.043 | [4] 0.004 | [5] -0.03

MNX1 (UniProt P50219)
inactive: [1] -0.052 | [2] -0.076 | [3] 0.177 | [4] 0.012 | [5] 0.03

MKRN3 (UniProt Q13064)
inactive: [1] 0.028 | [2] 0.049 | [3] -0.085 | [4] 0.06 | [5] -0.013

MRFAP1 (UniProt Q9Y605)
inactive: [1] -0.02 | [2] -0.019 | [3] 0.03 | [4] -0.029 | [5] 0.014

MICU2 (UniProt Q8IYU8)
inactive: [1] -0.132 | [2] -0.069 | [3] 0.049 | [4] -0.072 | [5] -0.002

MGME1 (UniProt Q9BQP7)
inactive: [1] 0.029 | [2] 0.009 | [3] -0.018 | [4] -0.01 | [5] 0.005

MPHOSPH10 (UniProt O00566)
inactive: [1] 0.036 | [2] 0.001 | [3] -0.019 | [4] 0.029 | [5] 0.04

2 consecutive records from above, for reference:
MGME1 (UniProt Q9BQP7)
inactive: [1] 0.029 | [2] 0.009 | [3] -0.018 | [4] -0.01 | [5] 0.005

MPHOSPH10 (UniProt O00566)
inactive: [1] 0.036 | [2] 0.001 | [3] -0.019 | [4] 0.029 | [5] 0.04

(list continues)

MOB3A (UniProt Q96BX8)
inactive: [1] -0.013 | [2] 0.019 | [3] -0.035 | [4] 0.025 | [5] 0.031

MIOS (UniProt Q9NXC5)
inactive: [1] -0.006 | [2] -0.019 | [3] 0 | [4] -0.014 | [5] -0.037

MGAT2 (UniProt Q10469)
inactive: [1] -0.056 | [2] -0.052 | [3] -0.035 | [4] 0.042 | [5] -0.007

MORF4L2 (UniProt Q15014)
inactive: [1] 0.044 | [2] 0.01 | [3] 0.015 | [4] -0.024 | [5] -0.021

Two records drawn at random from the list so far:
MIOS (UniProt Q9NXC5)
inactive: [1] -0.006 | [2] -0.019 | [3] 0 | [4] -0.014 | [5] -0.037

MGAT2 (UniProt Q10469)
inactive: [1] -0.056 | [2] -0.052 | [3] -0.035 | [4] 0.042 | [5] -0.007

Additional results follow.

MGST2 (UniProt Q99735)
inactive: [1] 0.038 | [2] -0.062 | [3] -0.016 | [4] -0.025 | [5] -0.136

MMS19 isoform 8 (UniProt Q96T76)
inactive: [1] -0.024 | [2] 0.001 | [3] 0.032 | [4] -0.005 | [5] 0.018

MGAT4B isoform 3 (UniProt Q9UQ53)
inactive: [1] -0.163 | [2] 0.041 | [3] -0.135 | [4] 0.074 | [5] 0.049

MOB4 (UniProt Q9Y3A3)
inactive: [1] 0.028 | [2] 0 | [3] 0.03 | [4] 0.009 | [5] -0.086
